Data published in US20250122255A1.

Experiments:
[1] = biological target: PP4R3β, regulatory subunit of the protein phosphatase 4 (PP4) complex (human) (UniProt Q5MIZ7); assay: affinity purification-mass spectrometry (interaction proteomics), OVCAR-5 and COV318 cells, against tag-alone control
[2] = biological target: T1, PP4R3α, regulatory subunit of the protein phosphatase 4 (PP4) complex (human) (UniProt Q6IN85); assay: as above
T1 sequence (looked up): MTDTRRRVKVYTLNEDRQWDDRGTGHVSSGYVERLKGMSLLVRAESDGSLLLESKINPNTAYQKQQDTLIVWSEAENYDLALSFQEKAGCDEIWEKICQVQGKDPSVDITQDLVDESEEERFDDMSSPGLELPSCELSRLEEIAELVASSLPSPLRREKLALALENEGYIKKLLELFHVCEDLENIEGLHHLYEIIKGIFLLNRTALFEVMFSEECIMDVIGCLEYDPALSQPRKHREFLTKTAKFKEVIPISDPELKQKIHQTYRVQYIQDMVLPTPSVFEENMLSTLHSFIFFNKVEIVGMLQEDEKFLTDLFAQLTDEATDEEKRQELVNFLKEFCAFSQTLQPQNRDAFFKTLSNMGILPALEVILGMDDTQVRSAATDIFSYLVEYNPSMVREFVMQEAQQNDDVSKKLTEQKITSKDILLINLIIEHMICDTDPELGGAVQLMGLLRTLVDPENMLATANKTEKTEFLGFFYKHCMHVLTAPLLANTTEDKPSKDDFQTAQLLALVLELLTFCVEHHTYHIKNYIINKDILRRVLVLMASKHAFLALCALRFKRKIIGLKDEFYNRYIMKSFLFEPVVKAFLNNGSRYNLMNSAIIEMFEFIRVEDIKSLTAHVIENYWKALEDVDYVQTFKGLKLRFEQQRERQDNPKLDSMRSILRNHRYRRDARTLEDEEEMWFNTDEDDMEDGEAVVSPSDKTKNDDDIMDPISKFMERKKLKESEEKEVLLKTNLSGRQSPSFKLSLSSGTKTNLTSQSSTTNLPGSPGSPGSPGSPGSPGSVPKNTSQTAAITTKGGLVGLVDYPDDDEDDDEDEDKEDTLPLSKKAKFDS

[3] = biological target: PP4R3β, regulatory subunit of the protein phosphatase 4 (PP4) complex (human) (UniProt Q5MIZ7); assay: affinity purification-mass spectrometry, COV318 cells expressing V5-tagged CT45
[4] = biological target: T1, PP4R3α, regulatory subunit of the protein phosphatase 4 (PP4) complex (human); assay: as above
[5] = biological target: PP4R3β, regulatory subunit of the protein phosphatase 4 (PP4) complex (human) (UniProt Q5MIZ7); assay: affinity purification-mass spectrometry, OVCAR-5 cells expressing Flag-tagged CT45
[6] = biological target: T1, PP4R3α, regulatory subunit of the protein phosphatase 4 (PP4) complex (human); assay: as above

Measured: binding

B1: C-terminally tagged CT45A5 (V5 tag) (protein, not shown: small tags and cut ends)
chain: MTDKTEKVAVDPETVFKRPRECDSPSYQKRQRMALLARKQGAGDSLIAGSAMSKEKKLMTGHAIPPSQLDSQIDDFTGFSKDGMMQKPGSNAPVGGNVTSSFSGDDLECRETASSPKSQREINADIKRKLVKELRCVGQKYEKIFEMLEGVQGPTAVRKRFFESIIKEAARCMRRDFVKHLKKKLKRMI
binds: [1] | [2] | [3] | [4]

B2: N-terminally tagged CT45A1 (3xFLAG tag) (protein, not shown: small tags and cut ends)
chain: B1 chain with E55A, G83R
binds: [5] | [6]

Where a chain is given by its changes, count along the chain named. These are yes or no findings as the source states them, for the method shown. Binding seen in cells or lysates may run through a third protein. Here binding means that the protein was enriched with, or labelled near, the bait; the list need not be complete. Where a sequence is shown, tags or fusion partners need not be part of it.
